# Data taken from the supplement of paper PMC8728848.
# Some of the results follow.
# Assays:
# Test in all cases: glycan array binding signal (z-score within array); higher = stronger binding
# Conditions in all cases: glycan notation: IUPAC condensed, linker removed
# [1] = target: Gal(b1-4)GlcNAc(b1-3)Gal(b1-4)GlcNAc(b1-2)Man(a1-3)[Gal(b1-4)GlcNAc(b1-3)Gal(b1-4)GlcNAc(b1-2)Man(a1-6)]Man(b1-4)GlcNAc(b1-4)[Fuc(a1-6)]GlcNAc
# Summary of the method: (§1)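 The binding signal is a Z-score computed within each array and averaged over linkers. Arrays of the same protein sequence at different concentrations or buffers were also averaged together. Data originate from 3228 arrays in the Consortium for Functional Glycomics database, kept only where the protein sequence was available.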
# [2] = target: Gal(b1-4)GlcNAc(b1-3)Gal(b1-4)GlcNAc(b1-2)[Gal(b1-4)GlcNAc(b1-3)Gal(b1-4)GlcNAc(b1-6)]Man(a1-6)[Gal(b1-4)GlcNAc(b1-3)Gal(b1-4)GlcNAc(b1-2)Man(a1-3)]Man(b1-4)GlcNAc(b1-4)GlcNAc
# Summary of the method: as §1
# [3] = target: Gal(b1-4)GlcNAc(b1-3)Gal(b1-4)GlcNAc(b1-2)[Gal(b1-4)GlcNAc(b1-3)Gal(b1-4)GlcNAc(b1-6)]Man(a1-6)[Gal(b1-4)GlcNAc(b1-3)Gal(b1-4)GlcNAc(b1-2)Man(a1-3)]Man(b1-4)GlcNAc(b1-4)[Fuc(a1-6)]GlcNAc
# Summary of the method: as §1
# [4] = target: Gal(b1-4)GlcNAc(b1-3)Gal(b1-4)GlcNAc(b1-3)Gal(b1-4)GlcNAc
# Summary of the method: as §1
# [5] = target: Gal(b1-4)GlcNAc(b1-3)Gal(b1-4)GlcNAc(b1-3)Gal(b1-4)GlcNAc(b1-2)Man(a1-3)[Gal(b1-4)GlcNAc(b1-3)Gal(b1-4)GlcNAc(b1-3)Gal(b1-4)GlcNAc(b1-2)Man(a1-6)]Man(b1-4)GlcNAc(b1-4)GlcNAc
# Summary of the method: as §1
# [6] = target: Gal(b1-4)GlcNAc(b1-3)Gal(b1-4)GlcNAc(b1-3)Gal(b1-4)GlcNAc(b1-2)Man(a1-3)[Gal(b1-4)GlcNAc(b1-3)Gal(b1-4)GlcNAc(b1-3)Gal(b1-4)GlcNAc(b1-2)Man(a1-6)]Man(b1-4)GlcNAc(b1-4)[Fuc(a1-6)]GlcNAc
# Summary of the method: as §1
# [7] = target: Gal(b1-4)GlcNAc(b1-3)Gal(b1-4)GlcNAc(b1-3)Gal(b1-4)GlcNAc(b1-2)[Gal(b1-4)GlcNAc(b1-3)Gal(b1-4)GlcNAc(b1-3)Gal(b1-4)GlcNAc(b1-6)]Man(a1-6)[Gal(b1-4)GlcNAc(b1-3)Gal(b1-4)GlcNAc(b1-3)Gal(b1-4)GlcNAc(b1-2)Man(a1-3)]Man(b1-4)GlcNAc(b1-4)[Fuc(a1-6)]GlcNAc
# Summary of the method: as §1
# [8] = target: Gal(b1-4)GlcNAc(b1-3)Gal(b1-4)GlcNAc(b1-3)Gal(b1-4)GlcNAc(b1-3)Gal(b1-4)GlcNAc(b1-2)Man(a1-3)[Gal(b1-4)GlcNAc(b1-3)Gal(b1-4)GlcNAc(b1-3)Gal(b1-4)GlcNAc(b1-3)Gal(b1-4)GlcNAc(b1-2)Man(a1-6)]Man(b1-4)GlcNAc(b1-4)GlcNAc
# Summary of the method: as §1
# [9] = target: Gal(b1-4)GlcNAc(b1-3)Gal(b1-4)GlcNAc(b1-3)Gal(b1-4)GlcNAc(b1-3)Gal(b1-4)GlcNAc(b1-2)Man(a1-3)[Gal(b1-4)GlcNAc(b1-3)Gal(b1-4)GlcNAc(b1-3)Gal(b1-4)GlcNAc(b1-3)Gal(b1-4)GlcNAc(b1-2)Man(a1-6)]Man(b1-4)GlcNAc(b1-4)[Fuc(a1-6)]GlcNAc
# Summary of the method: as §1
# [10] = target: Gal(b1-4)GlcNAc(b1-3)Gal(b1-4)GlcNAc(b1-3)Gal(b1-4)GlcNAc(b1-3)Gal(b1-4)GlcNAc(b1-2)[Gal(b1-4)GlcNAc(b1-3)Gal(b1-4)GlcNAc(b1-3)Gal(b1-4)GlcNAc(b1-3)Gal(b1-4)GlcNAc(b1-6)]Man(a1-6)[Gal(b1-4)GlcNAc(b1-3)Gal(b1-4)GlcNAc(b1-3)Gal(b1-4)GlcNAc(b1-3)Gal(b1-4)GlcNAc(b1-2)Man(a1-3)]Man(b1-4)GlcNAc(b1-4)[Fuc(a1-6)]GlcNAc
# Summary of the method: as §1
# [11] = target: Gal(b1-4)GlcNAc(b1-3)Gal(b1-4)GlcNAc(b1-3)Gal(b1-4)GlcNAc(b1-3)Gal(b1-4)GlcNAc(b1-3)Gal(b1-4)GlcNAc(b1-2)Man(a1-3)[Gal(b1-4)GlcNAc(b1-3)Gal(b1-4)GlcNAc(b1-3)Gal(b1-4)GlcNAc(b1-3)Gal(b1-4)GlcNAc(b1-3)Gal(b1-4)GlcNAc(b1-2)Man(a1-6)]Man(b1-4)GlcNAc(b1-4)GlcNAc
# Summary of the method: as §1
# [12] = target: Gal(b1-4)GlcNAc(b1-3)Gal(b1-4)GlcNAc(b1-3)Gal(b1-4)GlcNAc(b1-3)Gal(b1-4)GlcNAc(b1-3)Gal(b1-4)GlcNAc(b1-2)Man(a1-3)[Gal(b1-4)GlcNAc(b1-3)Gal(b1-4)GlcNAc(b1-3)Gal(b1-4)GlcNAc(b1-3)Gal(b1-4)GlcNAc(b1-3)Gal(b1-4)GlcNAc(b1-2)Man(a1-6)]Man(b1-4)GlcNAc(b1-4)[Fuc(a1-6)]GlcNAc
# Summary of the method: as §1
# [13] = target: Gal(b1-4)GlcNAc(b1-3)Gal(b1-4)GlcNAc(b1-3)Gal(b1-4)GlcNAc(b1-3)Gal(b1-4)GlcNAc(b1-3)Gal(b1-4)GlcNAc(b1-2)[Gal(b1-4)GlcNAc(b1-3)Gal(b1-4)GlcNAc(b1-3)Gal(b1-4)GlcNAc(b1-3)Gal(b1-4)GlcNAc(b1-3)Gal(b1-4)GlcNAc(b1-6)]Man(a1-6)[Gal(b1-4)GlcNAc(b1-3)Gal(b1-4)GlcNAc(b1-3)Gal(b1-4)GlcNAc(b1-3)Gal(b1-4)GlcNAc(b1-3)Gal(b1-4)GlcNAc(b1-2)Man(a1-3)]Man(b1-4)GlcNAc(b1-4)[Fuc(a1-6)]GlcNAc
# Summary of the method: as §1
# [14] = target: Gal(b1-4)GlcNAc(b1-3)Gal(b1-4)GlcNAc(b1-3)Gal(b1-4)GlcNAc(b1-3)Gal(b1-4)GlcNAc(b1-3)Gal(b1-4)GlcNAc(b1-3)Gal(b1-4)GlcNAc(b1-2)Man(a1-3)[Gal(b1-4)GlcNAc(b1-3)Gal(b1-4)GlcNAc(b1-3)Gal(b1-4)GlcNAc(b1-3)Gal(b1-4)GlcNAc(b1-3)Gal(b1-4)GlcNAc(b1-3)Gal(b1-4)GlcNAc(b1-2)Man(a1-6)]Man(b1-4)GlcNAc(b1-4)GlcNAc
# Summary of the method: as §1
# [15] = target: Gal(b1-4)GlcNAc(b1-3)Gal(b1-4)GlcNAc(b1-3)GalNAc
# Summary of the method: as §1
# [16] = target: Gal(b1-4)GlcNAc(b1-3)Gal(b1-4)GlcNAc(b1-3)[Gal(b1-4)GlcNAc(b1-3)Gal(b1-4)GlcNAc(b1-6)]GalNAc
# Summary of the method: as §1
# [17] = target: Gal(b1-4)GlcNAc(b1-3)Gal(b1-4)GlcNAc(b1-6)[Gal(b1-3)]GalNAc
# Summary of the method: as §1
# [18] = target: Gal(b1-4)GlcNAc(b1-3)Gal(b1-4)[Fuc(a1-3)]GlcNAc(b1-3)Gal(b1-4)[Fuc(a1-3)]GlcNAc
# Summary of the method: as §1
# [19] = target: Gal(b1-4)GlcNAc(b1-3)GalNAc
# Summary of the method: as §1
# [20] = target: Gal(b1-4)GlcNAc(b1-3)[Fuc(a1-3)GlcNAc(b1-6)]Gal(b1-4)Glc
# Summary of the method: as §1
# [21] = target: Gal(b1-4)GlcNAc(b1-3)[Gal(b1-4)GlcNAc(b1-6)]Gal(b1-4)GlcNAc
# Summary of the method: as §1
# [22] = target: Gal(b1-4)GlcNAc(b1-3)[GlcNAc(b1-6)]Gal(b1-4)GlcNAc
# Summary of the method: as §1
binder,measurement,setting,value
"RsaA-N-term (Caulobacter crescentus), P35828 (protein) MAYTTAQLVTAYTNANLGKAPDAATTLTLDAYATQTQTGGLSDAAALTNTLKLVNSTTAVAIQTYQFFTGVAPSAAGLDFLVDSTTNTNDLNDAYYSKFAQENRFINFSINLATGAGAGATAFAAAYTGVSYAQTVATAYDKIIGNAVATAAGVDVAAAVAFLSRQANIDYLTAFVRANTPFTAAADIDLAVKAALIGTILNAATVSGIGGYATATAAMINDLSDGALSTDNAAGVNLFTAYPSSGVSGSTLSLTTGTDTLTGTANNDTFVAGEVAGDGSGWSHPQFEKGG",glycan array binding signal (z-score),[1],2.39
same,glycan array binding signal (z-score),[2],-0.563
same,glycan array binding signal (z-score),[3],1.11
same,glycan array binding signal (z-score),[4],-0.897
same,glycan array binding signal (z-score),[5],2.09
same,glycan array binding signal (z-score),[6],-0.794
same,glycan array binding signal (z-score),[7],-0.258
same,glycan array binding signal (z-score),[8],0.106
same,glycan array binding signal (z-score),[9],0.726
same,glycan array binding signal (z-score),[10],0.57
same,glycan array binding signal (z-score),[11],0.366
same,glycan array binding signal (z-score),[12],-0.433
same,glycan array binding signal (z-score),[13],0.927
same,glycan array binding signal (z-score),[14],-0.072
same,glycan array binding signal (z-score),[15],-0.197
same,glycan array binding signal (z-score),[16],0.36
same,glycan array binding signal (z-score),[17],-1.1
same,glycan array binding signal (z-score),[18],-0.276
same,glycan array binding signal (z-score),[19],-0.105
same,glycan array binding signal (z-score),[20],-1.33
same,glycan array binding signal (z-score),[21],-0.453
same,glycan array binding signal (z-score),[22],0.529

# A different layout for some results above:
binder | measurement | setting | value
RsaA-N-term (Caulobacter crescentus), P35828 (protein) MAYTTAQLVTAYTNANLGKAPDAATTLTLDAYATQTQTGGLSDAAALTNTLKLVNSTTAVAIQTYQFFTGVAPSAAGLDFLVDSTTNTNDLNDAYYSKFAQENRFINFSINLATGAGAGATAFAAAYTGVSYAQTVATAYDKIIGNAVATAAGVDVAAAVAFLSRQANIDYLTAFVRANTPFTAAADIDLAVKAALIGTILNAATVSGIGGYATATAAMINDLSDGALSTDNAAGVNLFTAYPSSGVSGSTLSLTTGTDTLTGTANNDTFVAGEVAGDGSGWSHPQFEKGG | glycan array binding signal (z-score) | [7] | -0.258
same | glycan array binding signal (z-score) | [11] | 0.366
